The results in this text go back to patent US12137687B2, “Method for inducing acquired resistance in a plant” (HEINRICH HEINE UNIVERSITAET DUESSELDORF, priority 2017, dated 2024).

This data set is described as follows: Pip/NHP levels in Arabidopsis leaves after Psm inoculation (GC-MS). The data set is classed as in vivo, Arabidopsis thaliana. The settings on record: 24 hpi.

Consider `O=C(O)[C@@H]1CCCCN1` [Pip, (S)-piperidine-2-carboxylic acid, reference compound], for which, under “eds1 mutant”, the “endogenous level as share of the wild-type level” value is reported as “about 14%” and the “endogenous level in Psm-inoculated leaves” value came to 3.8 μg g^−1 FW. Where the note is “pad4 mutant”, the “endogenous level as share of the wild-type level” value was about 17% and the “endogenous level in Psm-inoculated leaves” value came out at 4.6 μg g^−1 FW.
